# Assay results as given in the supplement of paper PMC8728848.
# The other results are listed elsewhere or left out.
# B1: B3GalT2 (Rattus norvegicus) (protein)
# chain: LMLQWRRRHCCFAKMSWNAKRSLFRTHLMGVLSLVFLFAMFLFFNHHDWLPGRPGFKENPVTYTFRGFRSTKTETNQSSLRNIWKEVVPQTLRPQTATNSNNTELSPQGVTGLENTLSANGSIYNEKGTGHPNSYHFKYIINEPEKCQEKSPFLILLIAAEPGQIEARRAIRQTWGNETLAPGIQITRIFLLGISIKLNGYLQHAIQEESIQYHDIIQQEYLDTYYNLTIKTLMGMNWVATYCPHTPYVMKTDSDMFVNTEYLIHKLLKPDLPPRHNYFTGYLMRGYAPNRNKDSKWYMPPDLYPSERYPVFCSGTGYVFSGDLAEKIFKVSLGIRRLHLEDVYVGICLAKLRVDPVPPPNEFVFNHWRVSYSSCKYSHLITSHQFQPSELIKYWNHLQQNKHNACVNAAKEKAGRYRHRKLH
# Tests used:
# Assay in all cases: glycan array binding signal (z-score within array); higher = stronger binding
# Conditions in all cases: glycan notation: IUPAC condensed, linker removed
# Gal3S6S(b1-4)GlcNAc = biological target: Gal3S6S(b1-4)GlcNAc
# Outline: (§1)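 The binding signal is a Z-score computed within each array and averaged over linkers. Arrays of the same protein sequence at different concentrations or buffers were also averaged together. Data originate from 3228 arrays in the Consortium for Functional Glycomics database, kept only where the protein sequence was available.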
# Gal3S6S(b1-4)GlcNAc6S = biological target: Gal3S6S(b1-4)GlcNAc6S
# Outline: as §1
# Gal4S(b1-4)GlcNAc = biological target: Gal4S(b1-4)GlcNAc
# Outline: as §1
# Gal4S6S(b1-4)GlcNAc = biological target: Gal4S6S(b1-4)GlcNAc
# Outline: as §1
# Gal6P(b1-4)GlcNAc = biological target: Gal6P(b1-4)GlcNAc
# Outline: as §1
# Gal6S(b1-3)GlcNAc = biological target: Gal6S(b1-3)GlcNAc
# Outline: as §1
# Gal6S(b1-3)GlcNAc6S = biological target: Gal6S(b1-3)GlcNAc6S
# Outline: as §1
# Gal6S(b1-4)Glc = biological target: Gal6S(b1-4)Glc
# Outline: as §1
# Gal6S(b1-4)Glc6S = biological target: Gal6S(b1-4)Glc6S
# Outline: as §1
# Gal6S(b1-4)GlcNAc = biological target: Gal6S(b1-4)GlcNAc
# Outline: as §1
# Gal6S(b1-4)GlcNAc6S = biological target: Gal6S(b1-4)GlcNAc6S
# Outline: as §1
# GalNAc(a1-3)Gal = biological target: GalNAc(a1-3)Gal
# Outline: as §1
# GalNAc(a1-3)GalNAc = biological target: GalNAc(a1-3)GalNAc
# Outline: as §1
# [1] = biological target: GalNAc(a1-3)GalNAc(b1-3)Gal(a1-4)Gal(b1-4)Glc
# Outline: as §1
# [2] = biological target: GalNAc(a1-3)GalNAc(b1-3)Gal(a1-4)Gal(b1-4)GlcNAc
# Outline: as §1
# GalNAc(b1-3)Gal = biological target: GalNAc(b1-3)Gal
# Outline: as §1
# [3] = biological target: GalNAc(b1-3)Gal(a1-4)Gal(b1-4)GlcNAc
# Outline: as §1
# [4] = biological target: GalNAc(b1-3)Gal(a1-4)Gal(b1-4)GlcNAc(b1-3)Gal(b1-4)Glc
# Outline: as §1
# [5] = biological target: GalNAc(b1-3)Gal(a1-6)Gal(b1-4)Glc
# Outline: as §1
# GalNAc(b1-3)GalNAc = biological target: GalNAc(b1-3)GalNAc
# Outline: as §1
# GalNAc(b1-3)GlcNAc = biological target: GalNAc(b1-3)GlcNAc
# Outline: as §1
# GalNAc(b1-4)Gal(b1-4)Glc = biological target: GalNAc(b1-4)Gal(b1-4)Glc
# Outline: as §1
# GalNAc(b1-4)GlcNAc = biological target: GalNAc(b1-4)GlcNAc
# Outline: as §1
# [6] = biological target: GalNAc(b1-4)GlcNAc(b1-2)Man
# Outline: as §1
# [7] = biological target: GalNAc(b1-4)GlcNAc(b1-2)Man(a1-3)[GalNAc(b1-4)GlcNAc(b1-2)Man(a1-6)]Man(b1-4)GlcNAc(b1-4)GlcNAc
# Outline: as §1
# [8] = biological target: GalNAc(b1-4)GlcNAc(b1-3)GalNAc(b1-4)GlcNAc
# Outline: as §1
# GalNAc(b1-4)GlcNAc6S = biological target: GalNAc(b1-4)GlcNAc6S
# Outline: as §1
# GalNAc(b1-6)GalNAc = biological target: GalNAc(b1-6)GalNAc
# Outline: as §1
# GalNAc3S(b1-4)GlcNAc = biological target: GalNAc3S(b1-4)GlcNAc
# Outline: as §1
# GalNAc3S(b1-4)GlcNAc3S = biological target: GalNAc3S(b1-4)GlcNAc3S
# Outline: as §1
# [9] = biological target: GalNAc3S(b1-4)[Fuc(a1-3)]GlcNAc
# Outline: as §1
# GalNAc4S6S(b1-4)GlcNAc = biological target: GalNAc4S6S(b1-4)GlcNAc
# Outline: as §1
# GalNAc6S(b1-4)GlcNAc = biological target: GalNAc6S(b1-4)GlcNAc
# Outline: as §1
# Glc(a1-4)Glc = biological target: Glc(a1-4)Glc
# Outline: as §1
# [10] = biological target: Glc(a1-4)Glc(a1-4)Glc(a1-4)Glc
# Outline: as §1
# Glc(a1-6)Glc(a1-6)Glc = biological target: Glc(a1-6)Glc(a1-6)Glc
# Outline: as §1
# [11] = biological target: Glc(a1-6)Glc(a1-6)Glc(a1-6)Glc
# Outline: as §1
# Glc(b1-4)Glc = biological target: Glc(b1-4)Glc
# Outline: as §1
binder,measurement,setting,value
B1,glycan array binding signal (z-score),Gal3S6S(b1-4)GlcNAc,0.892
same,glycan array binding signal (z-score),Gal3S6S(b1-4)GlcNAc6S,1.33
same,glycan array binding signal (z-score),Gal4S(b1-4)GlcNAc,0.463
same,glycan array binding signal (z-score),Gal4S6S(b1-4)GlcNAc,1.63
same,glycan array binding signal (z-score),Gal6P(b1-4)GlcNAc,-0.663
same,glycan array binding signal (z-score),Gal6S(b1-3)GlcNAc,2.69
same,glycan array binding signal (z-score),Gal6S(b1-3)GlcNAc6S,0.576
same,glycan array binding signal (z-score),Gal6S(b1-4)Glc,0.439
same,glycan array binding signal (z-score),Gal6S(b1-4)Glc6S,0.992
same,glycan array binding signal (z-score),Gal6S(b1-4)GlcNAc,-0.022
same,glycan array binding signal (z-score),Gal6S(b1-4)GlcNAc6S,1.34
same,glycan array binding signal (z-score),GalNAc(a1-3)Gal,0.001
same,glycan array binding signal (z-score),GalNAc(a1-3)GalNAc,-0.798
same,glycan array binding signal (z-score),[1],-0.606
same,glycan array binding signal (z-score),[2],1.41
same,glycan array binding signal (z-score),GalNAc(b1-3)Gal,-0.173
same,glycan array binding signal (z-score),[3],0.82
same,glycan array binding signal (z-score),[4],-0.596
same,glycan array binding signal (z-score),[5],-0.464
same,glycan array binding signal (z-score),GalNAc(b1-3)GalNAc,1.69
same,glycan array binding signal (z-score),GalNAc(b1-3)GlcNAc,1.05
same,glycan array binding signal (z-score),GalNAc(b1-4)Gal(b1-4)Glc,-0.492
same,glycan array binding signal (z-score),GalNAc(b1-4)GlcNAc,0.342
same,glycan array binding signal (z-score),[6],1.72
same,glycan array binding signal (z-score),[7],-0.857
same,glycan array binding signal (z-score),[8],-0.185
same,glycan array binding signal (z-score),GalNAc(b1-4)GlcNAc6S,-0.243
same,glycan array binding signal (z-score),GalNAc(b1-6)GalNAc,0.126
same,glycan array binding signal (z-score),GalNAc3S(b1-4)GlcNAc,0.6
same,glycan array binding signal (z-score),GalNAc3S(b1-4)GlcNAc3S,0.014
same,glycan array binding signal (z-score),[9],0.413
same,glycan array binding signal (z-score),GalNAc4S6S(b1-4)GlcNAc,1.11
same,glycan array binding signal (z-score),GalNAc6S(b1-4)GlcNAc,-0.143
same,glycan array binding signal (z-score),Glc(a1-4)Glc,-0.621
same,glycan array binding signal (z-score),[10],-0.478
same,glycan array binding signal (z-score),Glc(a1-6)Glc(a1-6)Glc,-0.764
same,glycan array binding signal (z-score),[11],-0.622
same,glycan array binding signal (z-score),Glc(b1-4)Glc,-0.037

# Some of the entries so far, bar-delimited:
binder | measurement | setting | value
B1 | glycan array binding signal (z-score) | Gal4S6S(b1-4)GlcNAc | 1.63
same | glycan array binding signal (z-score) | [10] | -0.478
